Results from the supplement of paper PMC12889115.
This is one part of the list. These are raw signals, not scaled to a control.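 Primary screen: polymyxin B was added at a level permeabilizing Salmonella outer membranes while sparing inner membranes. DMSO wells, both with and without polymyxin B, established maximum growth. Plate-to-plate variation meant each plate was ranked on its own, and the lowest-OD600 compounds were selected as hits.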

Tested on: Salmonella enterica serovar Typhimurium SL1344
Test: bacterial growth OD600 after 18 h with compound and polymyxin B; higher = more bacterial growth (less inhibition)
Details: 50 µM, Mueller-Hinton broth

Structure (SMILES)	bacterial growth OD600 (polymyxin B 1 µg/mL)	bacterial growth OD600 (polymyxin B 0.75 µg/mL)
Cc1cccc2nc(CN(C)CC3(O)CCCN(CC4CCC4)C3=O)[nH]c12 (stereo unspecified)	0.884	–
O=C(COc1ccccc1Cl)N1CCCC(Nc2ccc3c(c2)OCCO3)C1 (stereo unspecified)	0.003	–
CCOc1ccc(CNC2COc3c(cccc3OC)C2)cc1CO (stereo unspecified)	0.884	–
Cc1cc2nc(N3CCC(C(=O)NCC(C)C)CC3)nc(C)c2cc1C	–	0.764
COc1ccc2c(c1)SC(c1ccc(OC)c(C)c1)CCN2Cc1cn(C)nc1C (stereo unspecified)	–	0.001
CCS(=O)(=O)c1ncc(CN2CCCC2c2ccccn2)n1CCc1ccccc1 (stereo unspecified)	–	0.76
O=C(c1nc2sccn2c1CNCC1(c2ccccc2)CCOCC1)N1CCCCC1	–	0.672
O=C(Cc1ccc(N2CCC(NCCc3cccc4ccccc34)CC2)cc1)N1CCC(O)CC1	–	0.772
COc1cc(Cl)c(CN2CCCC(CO)(Cc3ccc(F)cc3F)C2)cc1OC (stereo unspecified)	0.884	–
O=C(CCn1cncn1)N1CCCC(CCc2ccccc2)C1 (stereo unspecified)	–	0.81
C[C@H](NC1CCN(c2ccc(C(=O)NCc3ccc4c(c3)OCO4)cc2)CC1)c1ccccc1	–	0.763
COC1CCN(Cc2nc(Cc3ccccc3Cl)no2)CC1	1.19	–
CCC(C)NC(=O)NCc1cccnc1N1CCN(c2ccccc2OC)CC1 (stereo unspecified)	0.714	–
CC1CCN(Cc2nnnn2CC(=O)NCc2csc(-c3cccs3)n2)CC1	0.679	–
CCN(CC)CC(O)COc1cc(CNC2CCC2)ccc1OC (stereo unspecified)	1.12	–
COc1ccc(OC)c(-c2cc(Cl)c3c(c2)CC(CNC(=O)Cc2cn4ccsc4n2)O3)c1 (stereo unspecified)	–	0.009

2 of the compounds above, bar-delimited.
Structure (SMILES) | bacterial growth OD600 (polymyxin B 1 µg/mL) | bacterial growth OD600 (polymyxin B 0.75 µg/mL)
O=C(Cc1ccc(N2CCC(NCCc3cccc4ccccc34)CC2)cc1)N1CCC(O)CC1 | – | 0.772
COC1CCN(Cc2nc(Cc3ccccc3Cl)no2)CC1 | 1.19 | –

Continuation:

Structure (SMILES)	bacterial growth OD600 (polymyxin B 1 µg/mL)	bacterial growth OD600 (polymyxin B 0.75 µg/mL)
O=C(CCC1CCN(C(=O)c2ccco2)CC1)Nc1ccc2c(c1)OCCO2	0.889	–
Cc1c(CC(=O)N2CCSCC2)c2c(n1CC1CCCO1)CCCC2=O (stereo unspecified)	0.894	–
Cc1cccnc1CN(C)C(=O)c1ccc2nc(Cc3ccccc3F)oc2c1	–	0.719
COCCNC(=O)c1ccc(OC)cc1OC1CCN(C2CCC2)CC1	1.15	–
COC(=O)[C@@H]1CCCN1Cc1c[nH]nc1-c1ccc(-c2ccccc2)cc1	0.854	–
COC(=O)c1ccc(CN2CCCC(Nc3cccc(F)c3)C2)cc1 (stereo unspecified)	–	0.89
COc1ccc(CCN2CCCC(CN(C)Cc3ncc[nH]3)C2)cc1 (stereo unspecified)	–	0.865
COCCN1C(=O)CC(CC(=O)N(Cc2ccccc2)CC2CC2)(c2ccccc2OC)C1=O (stereo unspecified)	–	0.003
O=C(NCC1Cc2cccc(-c3ncccn3)c2O1)C1CC1 (stereo unspecified)	–	0.939
CC#CCN1C(=O)NC(CCc2ccccc2)(C2CCN(Cc3cc(OC)ccc3OC)CC2)C1=O (stereo unspecified)	–	0.775
FC(F)(F)c1cccc(Cc2noc(CN3CCC(OCc4ccccn4)CC3)n2)c1	0.879	–
CCC(C)CNc1ccc(C(=O)N2CCC(CN3CCCC3=O)CC2)cn1 (stereo unspecified)	–	0.817
COc1cccc(OC)c1CN1CCC(C(Cc2ccccc2Cl)N(C)C(=O)c2ccco2)CC1 (stereo unspecified)	–	0.731
O=C1CC(NCc2cc(F)ccc2-n2cccn2)CN1Cc1cccc(F)c1 (stereo unspecified)	0.896	–
O=C(CCc1ccccc1)NCC1CC(Cc2ccc(F)cc2)=NO1 (stereo unspecified)	–	0.878
